Tested on: 24-hydroxylase (24Ohase) gene promoter
Assay: In vitro transcription assay, luciferase reporter in ROS 17/2.8 (bone) cells
Type: cell-based
Details: ROS 17/2.8 cells, 24-hydroxylase promoter luciferase, 16 h; FIG. 3; read-out: EC50, transcriptional activity in bone cells
Description: Transcription activity was measured in ROS 17/2.8 (bone) cells that were stably transfected with a 24-hydroxylase (24Ohase) gene promoter upstream of a luciferase reporter gene (Arbour et al., 1998). Cells were given a range of doses. Sixteen hours after dosing the cells were harvested and luciferase activities were measured using a luminometer.
RLU=relative luciferase units.

## C=C1/C(=C\C=C2/CCC[C@]3(C)[C@@H]([C@H](C)CCCC(C)(C)O)CC[C@@H]23)C[C@@H](O)C[C@@H]1O [1,25(OH)2D3, 1α,25-dihydroxyvitamin D3, reference compound]
  EC50: 200 pM

From patent publication US7947666B2, “2-methylene-(20S,25S)-19,26-dinor-vitamin D analogs” (Wisconsin Alumni Research Foundation, priority 2007, dated 2011)
